Taken from: PubChem BioAssay AID1259308 (NCATS, 2017)
Test: 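Candidate targets for better recombinant protein yield in mammalian cells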 (primary screen). Cell system: human HEK293 embryonic kidney cells stably expressing firefly luciferase (HEK-CMV-Luc2-Hygro). Knock-down reagent: single siRNA against human genes, 0.8 pmol siRNA per well. Time to read-out: 72 h. Measured: 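Reporter luminescence and viable-cell signal on separate replicate plates, given as percent of non-targeting control and median/MAD z-scores, plus per-cell luciferase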. Direction: total luciferase, z-score and total luciferase, % of control: higher = more reporter protein produced. Call rule: 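An siRNA counts as active if its total luciferase robust z-score exceeds 3; genes with two or more such siRNAs out of three were retested with fresh siRNAs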. Meaning of the calls: active = raised luciferase; inactive = no rise.
This is one part, drawn at random, of about 59,000 reagents. About 1,510 of all reagents (2.6%) count as active. 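Calls use total luciferase alone and ignore viability, so some active siRNAs may act by altering cell number.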 Reagents against one gene are numbered here. Further read-outs or replicates are left out here.

After knock-down of NNMT #1, the screen gave total luciferase, z-score 0.104; total luciferase, % of control 84; inactive. Depletion of NNMT #2 gave: total luciferase, z-score -0.345; total luciferase, % of control 75; inactive. With knock-down of NNMT #3, the record shows total luciferase, z-score -0.445; total luciferase, % of control 73; inactive. Depletion of SPATA31J1 #1 gave: total luciferase, z-score 1.26; total luciferase, % of control 107; inactive. Silencing of SPATA31J1 #2 resulted in: total luciferase, z-score 0.516; total luciferase, % of control 92.2; inactive. After knock-down of SPATA31J1 #3, the screen gave total luciferase, z-score -0.987; total luciferase, % of control 62.2; inactive.

SPATA31J1 #4 scored total luciferase, z-score 2.66; total luciferase, % of control 135; inactive. After knock-down of SPATA31J1 #5, the record shows total luciferase, z-score 1.6; total luciferase, % of control 114; inactive. Depletion of SPATA31J1 #6 came out at: total luciferase, z-score 0.23; total luciferase, % of control 86.5; inactive. Depletion of MEGF9 #1 came out at: total luciferase, z-score -0.638; total luciferase, % of control 69.2; inactive. Silencing of MEGF9 #2 gave: total luciferase, z-score -1.67; total luciferase, % of control 48.7; inactive. After knock-down of MEGF9 #3, the screen gave total luciferase, z-score 0.501; total luciferase, % of control 91.9; inactive.

After knock-down of PRDM1 #1 the results were total luciferase, z-score 0.26; total luciferase, % of control 87.1; inactive. Knock-down of PRDM1 #2 resulted in: total luciferase, z-score -1.41; total luciferase, % of control 53.8; inactive. Depletion of PRDM1 #3 gave: total luciferase, z-score 0.843; total luciferase, % of control 98.7; inactive. For PHC2 #1 the deposit lists total luciferase, z-score -0.642; total luciferase, % of control 69.1; inactive. With knock-down of PHC2 #2 the results were total luciferase, z-score 2.75; total luciferase, % of control 137; inactive. Knock-down of PHC2 #3 came out at: total luciferase, z-score 0.703; total luciferase, % of control 95.9; inactive.

For PMM1 #1 the deposit lists total luciferase, z-score 0.49; total luciferase, % of control 91.6; inactive. For PMM1 #2 the deposit lists total luciferase, z-score 0.261; total luciferase, % of control 87.1; inactive. Against PMM1 #3 the deposit lists total luciferase, z-score -1.98; total luciferase, % of control 42.4; inactive. Against UNC13D #1, the entry reads total luciferase, z-score -1.1; total luciferase, % of control 60; inactive. For UNC13D #2, the entry reads total luciferase, z-score -1.09; total luciferase, % of control 60.1; inactive. Depletion of UNC13D #3 gave: total luciferase, z-score 0.024; total luciferase, % of control 82.4; inactive.

Part of the list above, set out differently.
gene,reagent no.,"total luciferase, z-score","total luciferase, % of control",Outcome
NNMT,1,0.104,84,inactive
NNMT,2,-0.345,75,inactive
NNMT,3,-0.445,73,inactive
SPATA31J1,1,1.26,107,inactive
SPATA31J1,2,0.516,92.2,inactive
SPATA31J1,3,-0.987,62.2,inactive

Continued.
Knock-down of LRP10 #1 came out at: total luciferase, z-score -0.21; total luciferase, % of control 77.7; inactive. LRP10 #2 gave total luciferase, z-score -0.908; total luciferase, % of control 63.8; inactive. Silencing of LRP10 #3 gave: total luciferase, z-score 1.19; total luciferase, % of control 105; inactive. Knock-down of PLXNA2 #1 resulted in: total luciferase, z-score -1.2; total luciferase, % of control 58; inactive. For PLXNA2 #2 the deposit lists total luciferase, z-score -0.386; total luciferase, % of control 74.2; inactive. For PLXNA2 #3, the entry reads total luciferase, z-score -0.146; total luciferase, % of control 79; inactive.

CAT #1 gave total luciferase, z-score 0.306; total luciferase, % of control 88; inactive. CAT #2 showed total luciferase, z-score 2.32; total luciferase, % of control 128; inactive. Against CAT #3, the entry reads total luciferase, z-score 0.565; total luciferase, % of control 93.1; inactive. LOC727799 (retired record) #1 showed total luciferase, z-score -0.551; total luciferase, % of control 70.9; inactive. Knock-down of LOC727799 (retired record) #2 came out at: total luciferase, z-score -0.075; total luciferase, % of control 80.4; inactive. With knock-down of LOC727799 (retired record) #3 the results were total luciferase, z-score 1.46; total luciferase, % of control 111; inactive.

After knock-down of DHFR2 #1 the results were total luciferase, z-score -1.96; total luciferase, % of control 43; inactive. For DHFR2 #2, the entry reads total luciferase, z-score -1.41; total luciferase, % of control 53.9; inactive. DHFR2 #3 gave total luciferase, z-score 0.384; total luciferase, % of control 89.5; inactive. LHFPL3 #1 scored total luciferase, z-score -1.42; total luciferase, % of control 53.7; inactive. Against LHFPL3 #2, the values are total luciferase, z-score 0.449; total luciferase, % of control 90.8; inactive. LHFPL3 #3 scored total luciferase, z-score -0.772; total luciferase, % of control 66.5; inactive.
